# Laboratory results published in PubChem BioAssay AID1671190 (National Center for Advancing Translational Sciences (NCATS), 2021).
# Sequences of proteins named here, by UniProt entry; tags and fusion partners are left off. A change or cut given only in a name is not applied to a line headed by its entry.
# UniProt P18054: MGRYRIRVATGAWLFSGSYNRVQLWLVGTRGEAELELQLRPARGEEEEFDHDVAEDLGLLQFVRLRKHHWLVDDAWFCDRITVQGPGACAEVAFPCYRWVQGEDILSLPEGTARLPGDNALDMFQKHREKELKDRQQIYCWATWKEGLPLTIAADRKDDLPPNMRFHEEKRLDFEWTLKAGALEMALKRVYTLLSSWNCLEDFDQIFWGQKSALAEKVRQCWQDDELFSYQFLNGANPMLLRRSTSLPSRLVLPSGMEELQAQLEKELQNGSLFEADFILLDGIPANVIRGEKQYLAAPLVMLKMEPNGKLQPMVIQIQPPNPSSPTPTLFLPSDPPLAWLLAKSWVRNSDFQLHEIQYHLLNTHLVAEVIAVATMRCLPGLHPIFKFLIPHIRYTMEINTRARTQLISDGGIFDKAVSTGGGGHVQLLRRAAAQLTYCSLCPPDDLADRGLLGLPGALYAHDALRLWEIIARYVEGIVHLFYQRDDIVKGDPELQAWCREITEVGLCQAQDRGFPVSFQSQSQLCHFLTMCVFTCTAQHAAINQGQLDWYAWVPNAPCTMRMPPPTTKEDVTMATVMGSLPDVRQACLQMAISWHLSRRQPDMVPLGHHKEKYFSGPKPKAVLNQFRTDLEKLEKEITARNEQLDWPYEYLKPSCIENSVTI
# Out of some 580,000 compounds screened, about 6,100 (1.1%) were called active. The inconclusive results got no clear call from the source; some entries with a clear call stand among them for comparison. Calls follow the shape of the dose curve; as a rule, active = well fitted inhibition curve with a large enough effect; inconclusive = small, poorly fitted or top-dose-only effect, or another doubt; inactive = no such curve, though single readings can be large or run the other way. Where the call is inconclusive, the potency comes from a doubtful curve fit.
# Molecular target: Polyunsaturated fatty acid lipoxygenase ALOX12 (Homo sapiens) (UniProt P18054)
# Assay: Primary qHTS assay for inhibitors of human arachidonate 12S-lipoxygenase (ALOX12): Round 2
# Conditions: purified 12hLO, xylenol orange hydroperoxide absorbance; activity change, negative = inhibition: at 108 µM (top of the series) unless noted
# How it was run: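 Purified human 12hLO (150 nM final) in 25 mM Hepes, 0.01% Triton X-100, pH 7.0 was preincubated 15 min at room temperature with compound. Then 40 uM arachidonic acid was added, 30 min. Hydroperoxide was read by Fe-XO absorbance ratio 573/405 nm.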
# % is scaled to controls: 0 for no effect and ±100 for the full control effect; potency is read from the fitted curve at half-maximal effect.
SMILES,"activity change, negative = inhibition",Potency
O=C(Nc1cccc(S(=O)(=O)N2CCOCC2)c1)c1sc2ccccc2c1Cl,inactive: -7.21%,
CCCc1cc(=O)[nH]c2nnc(SCC(=O)NCc3ccc4c(c3)OCO4)n12,,"inconclusive: 158 µM [inhibitor, partial curve, poor fit]"
CC(C)OCCN1CCC(N2CCCC2)CC1,,"inconclusive: 63.1 µM [inhibitor, partial curve, poor fit]"
Fc1ccc(/C=N/Nc2ccccc2)cc1F,,"inconclusive: 2.82 µM [inhibitor, full curve, poor fit]"
Cc1ccc(C)c(OCCC(=O)N(C)CC(=O)Nc2c(C)cccc2C)c1,,"inconclusive: 44.7 µM [inhibitor, partial curve, poor fit]"
COc1ccc(C(=O)/C=C/c2ccccc2OC(F)F)c(OC)c1,,"inconclusive: 100 µM [inhibitor, single point]"
CC(C)Cn1nnnc1SCCS(=O)(=O)c1cc(Cl)ccc1Cl,,"inconclusive: 50.1 µM [inhibitor, single point]"
COc1ccc(-c2noc(N3CCCC(C(=O)Nc4cc(F)ccc4F)C3)n2)cc1 (centres undefined),inactive: 11.9%,
CSCCc1nc(SCC(=O)Nc2ccc(C)cc2)[nH]c1C,,"inconclusive: 0.0891 µM [inhibitor, full curve, poor fit]"
CCCC(=O)N1CC2(C1)CN(C(=O)CN1CCOCC1)[C@H](CO)c1c2c2ccc(OC)cc2n1C,,"inconclusive: 126 µM [inhibitor, partial curve, poor fit]"
COC(=O)c1ccccc1NC(=O)CN1CCN(c2ccccn2)CC1,inactive: 0%,
O=C(NC(NC(=O)c1ccccc1)c1cccc(I)c1F)c1ccccc1,,"inconclusive: 100 µM [inhibitor, single point]"
CC1CCCC(NC(=O)/C(C#N)=C\c2ccccc2)C1C (centres undefined),,"inconclusive: 50.1 µM [inhibitor, partial curve, poor fit]"
COc1ccc(C(CNC(=O)c2oc3ccccc3c2C)N2CCCC2)cc1 (centres undefined),,"inconclusive: 126 µM [inhibitor, single point]"
COc1cccc(-c2ocnc2C(=O)Nc2ccc(N3CCOCC3)cc2N2CCOCC2)c1,inactive: 5.44%,
CCc1cc(=O)oc2cc(OC(C)=O)cc(OC(C)=O)c12,inactive: 22.7%,
Cc1cc2nc(-c3ccco3)c(Cc3cccc(Cl)c3)n2c(C)c1Br,,"inconclusive: 44.7 µM [inhibitor, partial curve, poor fit]"
COc1cccc(CC(=O)N2CCCN(C(=O)C3CC3)c3ccccc32)c1,inactive: -7.6%,
CN(C)c1ccc(P(=O)(OC2CCCCC2)C(O)c2ccncc2)cc1 (centres undefined),,"inconclusive: 126 µM [inhibitor, single point]"

# Copied from the results shown (two entries):
SMILES,"activity change, negative = inhibition",Potency
CC(C)OCCN1CCC(N2CCCC2)CC1,,"inconclusive: 63.1 µM [inhibitor, partial curve, poor fit]"
Fc1ccc(/C=N/Nc2ccccc2)cc1F,,"inconclusive: 2.82 µM [inhibitor, full curve, poor fit]"
